Assay results reported in PubChem BioAssay AID2685 (National Center for Advancing Translational Sciences (NCATS), 2010).
Some of the results follow. The main result of the screen is listed elsewhere. These columns were measured beside it and carry no call. Compounds called inactive in the main read-out are mostly missing here. Potencies come from curve fits of mixed quality, noted in brackets.

Assay: qHTS Assay for Lipid Storage Modulators in Drosophila S3 Cells;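 for cell number change: cells counted by Cell Tracker Red CMTPX staining in the red channel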
Details: BODIPY lipid droplet fluorescence, 18-24 h; for cell number change: measured here: cell count max response, cells fed with added oleic acid
Method in brief: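 Laser-scanning cytometry quantifies lipid droplet accumulation (500–530 nm total intensity; droplet/cell object ratio) in oleic acid-fed (400 uM added) Drosophila S3 cells treated with a concentration series. 20 uM Triacsin C defined 100% inhibition.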

[1] = measured here: lipid fluorescence (Fed channel) AC50, cells fed with added oleic acid
[2] = measured here: cell number channel AC50, cells fed with added oleic acid

Compound	AC50 [1]	cell number change [%]	AC50 [2]
COc1ccc(-c2cn(CCC(=O)O)c(-c3ccc(Cl)nc3)n2)cc1	0.092 µM [rising, full curve, poor fit]		
Cc1ccc(N=CC=C2OC(C)(C)C(C)(C)O2)c(C)c1	29.1 µM [falling, single point]	-2.84	0.146 µM [rising, partial curve, poor fit]
CCOc1ccc(C(=O)NCC(=O)OCC(=O)N2C(C)CCCC2C)cc1 (configuration not stated)		2.96	
Cc1ccc(N(CC(=O)N2CCOCC2)S(C)(=O)=O)cc1C		16.5	
COC(=O)C1=C(C(=O)OC)[C@@H]2N(Cc3ccccc3)c3ccccc3[C@@]23C[C@@H](C(=O)OC)N(C(=O)COCc2ccccc2)C3=N1	29.1 µM [falling, single point]	-33.2	29.1 µM [falling, single point]
CN1CCN(C(=O)CCCOc2cc(=O)n(C)c3ccccc23)CC1	1.64 µM [rising, partial curve]	48.7	7.31 µM [rising, partial curve]
Nn1c(SCC(=O)Nc2nccs2)nnc1-c1ccco1	6.51 µM [falling, partial curve, poor fit]	-7.58	
COC(=O)c1c(NS(=O)(=O)Cc2ccccc2)sc2c1CCCC2	23.1 µM [falling, single point]	-34.9	29.1 µM [falling, single point]
CC(C)c1cccc(C(C)C)c1NC(=O)COC(=O)c1ccc(OCC(=O)Nc2cccc(C(F)(F)F)c2)cc1	0.13 µM [falling, partial curve, poor fit]	7.21	
O=C(Nc1cccc(S(=O)(=O)N2CCOCC2)c1)c1cnccn1	6.51 µM [falling, single point]	81.7	14.6 µM [rising, partial curve]
CCOC(=O)N1CCN(c2ccc(O)cc2)CC1	0.651 µM [falling, partial curve, poor fit]	-4.86	
COc1ccc(C(=O)C[n+]2ccc3c(c2)nc(-c2cc(OC)c(OC)cc2OC)n3C)cc1	6.51 µM [falling, single point]	17.1	
COc1ccc(CN=CC2=C(O)CNC2=O)cc1	16.4 µM [falling, single point]	-5.19	
COc1ccc(Nc2nc(C)c(-c3ccccc3)s2)cc1	6.51 µM [falling, single point]	-31.7	5.17 µM [falling, full curve]
O=C(CCC(=O)c1ccccc1)NCCOc1ccccc1	6.51 µM [falling, single point]	32.2	1.84 µM [rising, partial curve]
CCc1nc(SCC(=O)N2CCCCC2)c2c(=O)n(C)c(=O)n(C)c2n1		-16.6	6.51 µM [falling, single point]
CCC(C(=O)Nc1ccccc1OC)n1c(C(=O)OC)cc2ccsc21 (configuration not stated)	18.4 µM [falling, partial curve, poor fit]	-11.1	
CC/C(=N\NC(=O)c1cc(C2CC2)[nH]n1)c1ccccc1	29.1 µM [rising, single point]	23.9	
COc1cccc(-c2c(-c3cc(OC)cc(OC)c3)n(C)c3ccc(Br)cc23)c1	0.231 µM [falling, full curve]	11.3	0.259 µM [falling, full curve, poor fit]
CSc1ccc(-c2sc(Nc3ccccc3)n[n+]2-c2ccccc2)cc1	16.4 µM [falling, single point]	-2.69	

Compound	AC50 [1]	cell number change [%]	AC50 [2]
Cc1ccc2nc(C(F)C(F)(F)F)[nH]c2c1 (configuration not stated)	3.26 µM [rising, partial curve]	4.97	
CCOC(=O)C1=C(C)NC(C)=C(C(=O)OCC)C1c1sccc1C		-41.3	
CC(OC(=O)c1cccnc1Cl)C(=O)NCc1ccccc1 (configuration not stated)	2.06 µM [rising, partial curve, poor fit]	-31.5	29.1 µM [falling, single point]
Cc1ccc(/C=C2\SC(=S)N(CCC(=O)NNC(=O)c3cccc(O)c3)C2=O)cc1	16.4 µM [falling, partial curve]	-36.1	29.1 µM [falling, single point]
C=CCn1c(-c2cccnc2)n[nH]c1=S	1.64 µM [rising, partial curve]	5.46	
COc1cc2c(cc1OC)C(c1ccc(-c3ccccc3Cl)o1)=NCC2	2.06 µM [rising, partial curve]	18	1.3 µM [rising, full curve]
CC(C)CNC(=S)NC1CC2CCCC(C1)N2Cc1ccco1 (configuration not stated)	25.9 µM [falling, partial curve, poor fit]	-29.5	
CCOc1ccc2ccccc2c1/C=N/NC(=O)CNC(=O)Cc1ccccc1		4.7	6.51 µM [rising, single point]
O=C(Nc1ccccc1)C1CCN(c2nccs2)CC1	0.13 µM [falling, full curve, poor fit]	6.82	0.517 µM [falling, single point]
O=C1c2ccccc2NC(c2cccc(F)c2)N1Cc1ccccc1 (configuration not stated)		9.45	
O=C(Oc1ccc(Cl)c2cccnc12)N1CCCCC1		-12.4	
S=C(NCc1cccnc1)Nc1cc(Cl)cc(Cl)c1		5.27	
CCc1nccn1CCC(=O)N1CCCC(Nc2ccc(F)cc2)C1 (configuration not stated)	29.1 µM [falling, single point]	-11.9	
COc1ccc(C2C(C#N)=C(N)Oc3c2c(-c2ccccc2)nn3-c2ccccc2)c(OC)c1OC (configuration not stated)	3.66 µM [falling, single point]	4.17	
CC(=O)Nc1ccc(S(=O)(=O)N2CCC(c3nc4ccc(C)cc4[nH]3)CC2)cc1		2.73	
Cc1cc(C)nc(NC(=O)CSc2nn(C)c(=S)s2)n1	0.58 µM [rising, single point]		0.58 µM [rising, single point]
Cc1cccc2c(CCNC(=O)c3ccc([N+](=O)[O-])cc3)c[nH]c12	1.64 µM [rising, partial curve, poor fit]	-5.43	
Cc1ccc(NC(=O)C/C(N)=N/OC(=O)c2ccccc2)cc1	4.11 µM [falling, single point]	9.88	
CC(OC(=O)c1ccc(Br)c(S(=O)(=O)N2CCOCC2)c1)C(=O)NC1CCCCC1C (configuration not stated)		88.5	14.6 µM [rising, partial curve]
CC(=O)OCC(=O)C1=CCC2C3CCC4=CC(=O)C=CC4(C)C3(F)C(OC(C)=O)CC12C (configuration not stated)	0.00461 µM [falling, full curve, poor fit]	0.62	

Compound	AC50 [1]	cell number change [%]	AC50 [2]
Cc1ccc2ccc[n+](Cc3ccccc3)c2c1		6.73	7.31 µM [falling, single point]
CSc1nnc2ccc(-c3ccc(C)cc3)nn12	0.411 µM [falling, full curve, poor fit]	5.07	
Cc1ccc(SCCC(=O)Nc2cc(C)on2)cc1		0.605	
Clc1ccc(Oc2cnns2)c(Cl)c1			0.731 µM [rising, single point]
Fc1ccc(-c2cc(-c3nnc4n3CCCCC4)c3ccccc3n2)cc1		-25.6	
COc1ccc(N(CC(=O)Nc2cc(OC)ccc2OC)S(=O)(=O)c2c(C)noc2C)cc1	6.51 µM [rising, single point]	-15.9	
COc1ccc(N2CCN(C(=O)c3c(Cl)cnn3C)CC2)cc1		-4.53	
O=C(c1ccc(CS(=O)c2ccccc2Cl)o1)N1CCN(c2ccccn2)CC1 (configuration not stated)	0.58 µM [rising, single point]	-5.67	
CCCCOc1ccccc1NC(=O)c1ccc(=O)[nH]c1	0.82 µM [rising, single point]		2.06 µM [rising, partial curve]
Cc1ccc(OCc2cc(C(=O)NC3CCCCC3)no2)cn1	1.46 µM [rising, partial curve]	-17.6	
NC(=O)CC(NC(=O)c1ccc(Cl)cc1)C(=O)NCCc1ccc(S(N)(=O)=O)cc1 (configuration not stated)		26.7	
Cc1ccc(C(=O)OCC(=O)NCc2cc(C)c(O)c(C)c2)cc1S(=O)(=O)N1CCCCC1	8.2 µM [falling, partial curve, poor fit]	-39.9	13 µM [falling, partial curve]
CN(C)S(=O)(=O)c1cccc(NC(=S)Nc2cc(Cl)cc(Cl)c2)c1	0.116 µM [rising, full curve, poor fit]	-17.4	
COCCn1c(CNc2ccc(F)cc2)nnc1SCC(=O)Nc1ccc(OC)cc1OC	29.1 µM [falling, single point]	-19.4	
O=C(CSc1nnc(-c2ccco2)n1Cc1ccccc1)NCc1ccccc1	16.4 µM [falling, single point]	-27.8	
CCCCNC(=S)N(Cc1c(C)noc1C)c1ccccc1	6.51 µM [rising, full curve, poor fit]	30.9	7.31 µM [rising, partial curve, poor fit]
O=C(O)CN1C(=O)COc2ccc(S(=O)(=O)N3CCCCCC3)cc21		10.7	
CC(C)n1c(-c2ccco2)csc1=Nc1cccnc1	0.461 µM [rising, single point]	-1.71	
CC(C)(C)OC(=O)NCCCCCc1nnc(SCC(=O)Nc2cccc(Cl)c2)o1	29.1 µM [falling, single point]		

Part of the list above, limited to cell number change [%] and AC50 [2].

| Compound | cell number change [%] | AC50 [2] |
| --- | --- | --- |
| Cc1ccc(C(=O)OCC(=O)NCc2cc(C)c(O)c(C)c2)cc1S(=O)(=O)N1CCCCC1 | -39.9 | 13 µM [falling, partial curve] |
| CN(C)S(=O)(=O)c1cccc(NC(=S)Nc2cc(Cl)cc(Cl)c2)c1 | -17.4 |  |
